The other results are listed elsewhere or left out.

First the molecules themselves.
B1: il2ra_site1_3nfp_normal_mot_HHH_b2_03135_af2_000000097_0001_42_55_H_._HHH_b2_03971_0001_0000400033_0000001_0 (protein)
chain: SSSSTEEFHHLAKLADEAYRALKEGNEEEVEKLLEEARKLAEELNDKIARRLLRQIEERLSSSSS
B2: il2ra_site1_3nfp_normal_mot_HHH_b2_03135_af2_000000097_0001_42_55_H_._HHH_b1_04523_0001_0000500034_0000001_0 (protein)
chain: SSSSDAAREFQELVRELIKLIKEGDEERARELLERLEQIVEERNDRIAKRLLRQLEEAVESSSSS
B3: il2ra_site2_3nfp_normal_mot_HHH_b1_00050_000000292_0001_22_38_H_._HHH_b2_04788_0001_0000100005_0000001_0 (protein)
chain: SSSSDLEEEAERLLLEAYRLLLEGNPERARELLEEAEELAREGGDEVLLRQIEWALEALRNSSSS
B4: il2ra_site1_2b5i_sap_13_mot_HHH_b2_06656_af2_000000038_0001_1_15_H_._HHH_b2_05528_0001_0000200016_0000001_0_0001_af2pred_dldesign_0_af2pred (protein)
chain: SSSSSSEAERLFLEANELHQAGKEEEAKKKLEEALKLAKAAKQNSLARAIESALSNFLESSSSSS
B5: il2ra_site2_2erj_sap_15_mot_HHH_b1_04373_af2_000000118_0001_18_33_H_._HHH_b2_01250_0001_0001100009_0000001_1_0001 (protein)
chain: SSSDLEEVTKEYVERAEELGNPLLARFLERLLEDAEKLGLSEEELRRILEASFRAVEEADKSSSS
B6: il2ra_site2_3nfp_sap_27_mot_HHH_b2_00444_000000178_0001_41_57_H_._HHH_b2_01308_af2_0001_0000100001_0000001_0_0001 (protein)
chain: SSSSDEEEEEVEELLKRIKELIENGNPEEARRLLRRVAQLAFKLNNAELFFRVAELLYELASSSS
B7: il2ra_site2_2erj_sap_28_mot_3b06bd03f1c6bceadc68eab912867b79_0001_000000296_0001_36_50_H_._HHH_b2_02223_0001_0000100001_0000001_0_0001 (protein)
chain: SSSSDVEELLKEIEELLRRGDEEEAEKLLFEAAELAFEKNDFELFNEVAELMREIDQLAVSSSSS
B8: il2ra_site2_2erj_sap_27_mot_HHH_b2_06206_af2_000000254_0001_22_39_H_._HHH_b1_04273_0001_0000200004_0000001_0_0001_af2pred_0001_af2pred (protein)
chain: SSSSSSDEEEEVRELLEEAKRIKDQREAYKVLEEAARLAEELDDPELFEEVTRVARKLSSSSSSS
B9: il2ra_site2_2erj_sap_25_mot_HHH_eva_0050_af2_000000198_0001_43_62_H_._HHH_b1_06648_af2_0001_0000100003_0000001_0_0001 (protein)
chain: SSSSSEKLHRLYELANILMRLVFEGDEEEFEEVLREAQEIAEELNSDNAQEFLEALKRQLSSSSS
B10: il2ra_site1_1z92_sap_30_mot_HHH_b1_01467_000000208_0001_22_39_H_._HHH_b2_06894_0001_0000200004_0000001_0_0001_af2pred_0001_af2pred_1 (protein)
chain: SSSSSEEERFARLAVKIAVEAAGLSEEQEKILQEVAEELLEEGVDLREIARILEEVALELASSSS
B11: il2ra_site2_3nfp_sap_27_mot_HHH_b1_05437_000000005_0001_40_57_H_._HHH_b2_08365_0001_0000100002_0000001_0_0001 (protein)
chain: SSSSSDEEVRRRVEELLEEAERVDEEERKELLAEAVRLAYELGDPELFFLIAEVAYRLASSSSSS
B12: il2ra_site2_3nfp_sap_12_mot_HHH_b1_00062_000000286_0001_1_17_H_._84ae4b0559e896e2d49ce04ad7058360_0001_0001_0000400013_0000001_0_0001 (protein)
chain: SSSSSKREEYLEVAVELLEEALEEGDEEIARKLLEVVEAAAESANDDEIERRLEEIRELLSSSSS
B13: il2ra_site1_1z92_normal_mot_934a834d9b8b770824478def2ff2f329_0001_af2_000000088_0001_15_30_H_._HHH_b1_06795_af2_0001_0000300026_0000001_0_af2pred_0001_af2pred (protein)
chain: SSSSSEEEEELKRFIEELVREFGLSESDKNQLELMAERALEQGLDDEAIKRDLKRLAEHLSSSSS
B14: il2ra_site2_3nfp_normal_mot_HHH_b1_04781_af2_000000057_0001_1_18_H_._HHH_b1_02713_0001_0000300026_0000001_0 (protein)
chain: SSSSDEEEFAEESIRLAEESAHALRDEELLERLKELLEQLEKEGDPRYALEAYALLREAYGSSSS
B15: il2ra_site1_3nfp_sap_19_mot_HHH_b1_05070_af2_000000282_0001_43_57_H_._HHH_b1_03343_0001_0000500027_0000001_1_0001_af2pred_0001_af2pred_1_swapped (protein)
chain: THLWKRAIEHIRKIDEELAELLEQVYELLKEKGDPELKRLLEEALRLLAKGNPEEAKEVLREALK
B16: il2ra_site2_2erj_normal_mot_HHH_b2_02252_af2_000000112_0001_23_39_H_._HHH_b2_01784_0001_0000800041_0000001_0 (protein)
chain: SSSSSDIEEEVEELIEEAKRIEDEEEALEVLRRAFELAFHLGNQELASEIIELAAELAKGSSSSS
B17: il2ra_site2_3nfp_sap_18_mot_HHH_b1_07052_000000239_0001_40_58_H_._HHH_b1_02131_0001_0000100001_0000001_0_0001_af2pred_0001_1_af2pred_swapped (protein)
chain: SSSSSTREEVEELLEEVERLIKEGDEEEAEEALREASKLAIEANDEELLLAVLRLLEELLSSSSS
B18: il2ra_site2_3nfp_normal_mot_HHH_b2_05281_000000198_0001_39_56_H_._HHH_b1_05110_0001_0000300018_0000001_0 (protein)
chain: SSSSDKEEERVEKLLEELKRLIEEGDDEEAQRLIAEAVHLIFELRDSELFYRLAELAYKLWSSSS
B19: il2ra_site1_2b5i_sap_13_mot_HHH_b2_04274_000000042_0001_1_19_H_._HHH_b1_01105_af2_0001_0000800037_0000001_0_0001_af2pred_dldesign_0_af2pred (protein)
chain: SSSSSPLEEKIAKLIEEARRLHAAGKRREALKLLEEAYKLASANDDEERQEEIEKLARELSSSSS

The target in this test is il2ra, P01589. Briefly: yeast display titration.
For the molecule B1, the apparent Kd (commonly the concentration giving half-maximal binding under the conditions of the assay) was “inactive: no binding seen”.

For B2, the “apparent Kd” value is “inactive: no binding seen”.

With B3, the “apparent Kd” value was “inactive: no binding seen”.

In the case of B4, the “apparent Kd” value is “inactive: no binding seen”.

As to B5, the “apparent Kd” value was “inactive: no binding seen”.

With B6, the “apparent Kd” value is “inactive: no binding seen”.

Consider B7, for which the apparent Kd is inactive: > 523 nM.

In the case of B8, the “apparent Kd” value is “inactive: no binding seen”.

For the molecule B9, the “apparent Kd” value is “inactive: no binding seen”.

In the case of B10, the “apparent Kd” value was “inactive: no binding seen”.

As for B11, the “apparent Kd” value is “inactive: no binding seen”.

Consider B12, for which the “apparent Kd” value was “inactive: no binding seen”.

With B13, the “apparent Kd” value is “inactive: no binding seen”.

Turning to B14, the “apparent Kd” value was “inactive: no binding seen”.

On to B15, for which the apparent Kd was inactive: > 341 nM.

Consider B16, for which the “apparent Kd” value was “inactive: no binding seen”.

Take B17: the “apparent Kd” value is “inactive: no binding seen”.

As for B18, the “apparent Kd” value was “inactive: no binding seen”.

Regarding B19, the “apparent Kd” value is “inactive: no binding seen”.

Values taken from paper PMC10163288.
